The list is a part of this screen's results and no random one: it is rich in T/C values a quarter to a half above the control, in often repeated tests (any T/C) and in doses without a T/C. Further doses and runs are listed elsewhere. T/C is the treated group as % of the vehicle group. Schedules are NCI's codes, read here as Q, the interval in days (D) or hours (H), X, the number of doses. Some T/C values are followed by the survivors on the day toxicity was checked, most often the fifth; where none is given, no animal had died by that day. Some entries give survivors of the animals treated and no T/C: the source holds a T/C of zero for them, seemingly a mark for toxic or unscored doses. Survivors were counted at the toxicity check, usually on the fifth day, unless a day is given; later deaths do not show. Some doses were run more than once; the values are given in rising order.
Tested on: nude mice, HT29 intrarenal xenograft, tumor weight T/C
Test: NCI In Vivo Anticancer Drug Screen. Data for tumor model HT29;CX-1 Human Adenocarcinoma (MER+) (intrarenal inoculation) in NU/NU Swiss (nude) mice
Settings: T/C endpoint: mean tumor weight change, higher T/C = larger tumour
How it was run: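 Mice with transplanted tumors are dosed with compound while controls get vehicle only. Survival or tumor burden is then assessed per group, and the treated value is expressed relative to control.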

[1] = dose: 600.0 mg/kg/injection, schedule: Q04DX004 (sc), vehicle: saline with Tween-80, evaluated on day 15
[2] = dose: 400.0 mg/kg/injection, schedule: Q01DX010 (sc), vehicle: saline
[3] = dose: 800.0 mg/kg/injection, schedule: Q01DX010 (sc), vehicle: saline
[4] = dose: 75.0 mg/kg/injection, schedule: Q04DX004 (sc), vehicle: saline with Tween-80
[5] = dose: 150.0 mg/kg/injection, schedule: Q04DX004 (sc), vehicle: saline with Tween-80
[6] = dose: 300.0 mg/kg/injection, schedule: Q04DX004 (sc), vehicle: saline with Tween-80
[7] = dose: 600.0 mg/kg/injection, schedule: Q04DX004 (sc), vehicle: saline with Tween-80
[8] = dose: 400.0 mg/kg/injection, schedule: Q04DX004 (sc), vehicle: Klucel (hydroxypropylcellulose) (HPC)
[9] = dose: 16.0 mg/kg/injection, schedule: Q01DX010 (sc), vehicle: saline
[10] = dose: 50.0 mg/kg/injection, schedule: Q01DX010 (sc), vehicle: saline
[11] = dose: 100.0 mg/kg/injection, schedule: Q01DX010 (sc), vehicle: saline

In the case of C[C@@](O)(/C=C/[C@H]1CC=CC(=O)O1)[C@@H](C[C@@H](O)\C=C/C=C\C=C\CO)OP(=O)(O)O, the survivor count (dose: 75.0 mg/kg/injection, schedule: Q04DX004 (sc), vehicle: saline) is reported as 0 of 6 on day 15.
CCCCCCC(=O)CC(SCC)c1ccccc1Cl (stereo unspecified) was tested, and the T/C [1] was 126 % of control.
For CCC1=C[C@H]2CN(CCc3c([nH]c4ccccc34)[C@@](C(=O)OC)(c3cc4c(cc3OC)N(C)[C@H]3[C@@](O)(C(=O)OC)[C@H](OC(C)=O)[C@]5(CC)C=CCN6CC[C@]43[C@@H]65)C2)C1, the survivor count (dose: 6.0 mg/kg/injection, schedule: Q04DX004 (sc), vehicle: water) was 1 of 6 on day 15, the survivor count (dose: 12.0 mg/kg/injection, schedule: Q04DX004 (sc), vehicle: water) was 3 of 6 on day 15 and the survivor count (dose: 24.0 mg/kg/injection, schedule: Q04DX004 (sc), vehicle: water) was 1 of 6 on day 15.
CCC1=C2C(=O)c3ccccc3C2=C(C)S(=O)(=O)O1 was tested, and the T/C [1] was 134 % of control.
In the case of NCCc1ccc(O)c(O)c1, the survivor count [2] is reported as 1 of 3 on day 11, the survivor count [3] is reported as 1 of 3 on day 11 and the survivor count (dose: 1600.0 mg/kg/injection, schedule: Q01DX010 (sc), vehicle: saline) is reported as 1 of 3 on day 11.
With COc1cccc2c1C(=O)c1c(O)c3c(c(O)c1C2=O)C[C@@](O)(/C(C)=N/NC(=O)c1ccc(Cl)cc1)C[C@@H]3OC1CC(N)C(O)C(C)O1 (stereo partly specified) the survivor count (dose: 80.0 mg/kg/injection, schedule: Q04DX004 (sc), vehicle: water) was 0 of 3 on day 15, the survivor count (dose: 160.0 mg/kg/injection, schedule: Q04DX004 (sc), vehicle: water) was 1 of 3 on day 15 and the survivor count (dose: 320.0 mg/kg/injection, schedule: Q04DX004 (sc), vehicle: water) was 0 of 3 on day 15.
Cc1cc(NCCCN(C)C)c2ccc3c(ccc4c(NCCCN(C)C)cc(C)nc43)c2n1 was tested, and the survivor count (dose: 18.75 mg/kg/injection, schedule: Q04DX004 (sc), vehicle: saline with Tween-80) was 3 of 6 on day 15, the survivor count (dose: 37.5 mg/kg/injection, schedule: Q04DX004 (sc), vehicle: saline with Tween-80) was 0 of 6 on day 15 and the survivor count [4] was 0 of 6 on day 15. The survivor count [5] was 0 of 6 on day 15, the survivor count [6] was 0 of 6 on day 15 and the survivor count [7] was 0 of 6 on day 15.
For CCCCCCCC(=O)OCC(=O)[C@]1(O)Cc2c(O)c3c(c(O)c2[C@@H](OC2CC(N)C(O)C(C)O2)C1)C(=O)c1c(OC)cccc1C3=O (stereo partly specified), the survivor count (dose: 16.0 mg/kg/injection, schedule: Q01DX010 (sc), vehicle: suspension in saline) was 0 of 3 on day 20 and the survivor count (dose: 40.0 mg/kg/injection, schedule: Q04DX004 (sc), vehicle: suspension in saline) was 0 of 3 on day 15.
In the case of CC(C)NC(=O)OCc1c(COC(=O)NC(C)C)c(-c2ccc(Cl)c(Cl)c2)n2c1CCC2, the survivor count (dose: 200.0 mg/kg/injection, schedule: Q01DX010 (sc), vehicle: distilled water + Tween-80) is reported as 3 of 5 on day 20 and the survivor count (dose: 800.0 mg/kg/injection, schedule: Q01DX010 (sc), vehicle: distilled water + Tween-80) is reported as 2 of 6 on day 20.
In the case of CCc1nc(N)nc(N)c1-c1ccc(Cl)c([N+](=O)[O-])c1, the T/C (dose: 37.5 mg/kg/injection, schedule: Q04DX004 (sc), vehicle: saline with Tween-80, evaluated on day 15) is reported as 134 % of control, the survivor count [4] is reported as 1 of 6 on day 15 and the survivor count [5] is reported as 1 of 6 on day 15. For the same molecule, the survivor count [6] was 0 of 6 on day 15.
In the case of O=c1[nH]c(=O)n(C2CC(O)C(CO)O2)cc1C(F)(F)F (stereo unspecified), the survivor count [3] is reported as 0 of 3 on day 20.
In the case of CNc1n[n+](-c2ccccc2)no1, the survivor count (dose: 150.0 mg/kg/injection, schedule: Q04DX004 (sc), vehicle: water) is reported as 0 of 6 on day 15 and the survivor count (dose: 300.0 mg/kg/injection, schedule: Q04DX004 (sc), vehicle: water) is reported as 0 of 6 on day 15.
In the case of Nc1ncnc2c1ncn2C1C=C(CO)C(O)C1O (stereo unspecified), the survivor count (dose: 30.0 mg/kg/injection, schedule: Q04DX004 (sc), vehicle: saline) is reported as 0 of 6 on day 15.
CCC/C=C/C=C/C(=O)OC1/C(=C/C(=O)OC)CC2CC(C(C)O)OC(=O)CC(O)CC3CC(OC(C)=O)C(C)(C)C(O)(CC4C/C(=C/C(=O)OC)CC(/C=C/C(C)(C)C1(O)O2)O4)O3 (stereo unspecified) was tested, and the T/C (dose: 2.0 mg/kg/injection, schedule: Q04DX004 (sc), vehicle: saline + alcohol, evaluated on day 15) was 132 % of control [5 of 6 alive on day 15].
With COc1ccc(Cl)[n+]([O-])n1 the survivor count (dose: 200.0 mg/kg/injection, schedule: Q04DX004 (sc), vehicle: Klucel (hydroxypropylcellulose) (HPC)) was 2 of 6 on day 15 and the survivor count [8] was 0 of 6 on day 15.
COc1cc([C@@H]2c3cc4c(c(O)c3C[C@H]3COC(=O)[C@@H]32)OCO4)cc(OC)c1OC was tested, and the survivor count [9] was 1 of 3 on day 11.
With C1CCC2OCCOCCOC3CCCCC3OCCOCCOC2C1 (stereo unspecified) the survivor count (dose: 150.0 mg/kg/injection, schedule: Q04DX004 (sc), vehicle: Klucel (hydroxypropylcellulose) (HPC)) was 0 of 6 on day 15 and the survivor count (dose: 300.0 mg/kg/injection, schedule: Q04DX004 (sc), vehicle: Klucel (hydroxypropylcellulose) (HPC)) was 0 of 6 on day 15.
CN(C)CC(Cl)CCl (stereo unspecified) was tested, and the survivor count (dose: 600.0 mg/kg/injection, schedule: Q04DX004 (sc), vehicle: saline) was 0 of 6 on day 15.
In the case of O=Cc1ccc(C(Cl)(Cl)Cl)cc1, the T/C (dose: 200.0 mg/kg/injection, schedule: Q01DX010 (sc), vehicle: saline with Tween-80, evaluated on day 11) is reported as 127 % of control and the T/C (dose: 800.0 mg/kg/injection, schedule: Q01DX010 (sc), vehicle: saline with Tween-80, evaluated on day 11) is reported as 145 % of control [2 of 3 alive on day 11].
In the case of C1CCC2[N-]CC3CCCCC3[N-]CC3CCCCC3[N-]CC3CCCCC3[N-]CC2C1.[Cu] (stereo unspecified), the survivor count (dose: 50.0 mg/kg/injection, schedule: Q01DX010 (sc), vehicle: Klucel (hydroxypropylcellulose) (HPC)) is reported as 0 of 3 on day 20.
In the case of COC12C(COC(N)=O)C3=C(C(=O)C(C)=C(N)C3=O)N1CC1C2N1C (stereo unspecified), the survivor count [9] is reported as 0 of 3 on day 11 and 1 of 3 on day 11 and the survivor count (dose: 32.0 mg/kg/injection, schedule: Q01DX010 (sc), vehicle: saline) is reported as 0 of 3 on day 11.
In the case of CCC1=C[C@H]2CN(CCc3c([nH]c4ccccc34)[C@@](C(=O)OC)(c3cc4c(cc3OC)N(C)[C@H]3[C@@](O)(C(=O)NC)[C@H](OC(C)=O)[C@]5(CC)C=CCN6CC[C@]43[C@@H]65)C2)C1, the survivor count (dose: 8.0 mg/kg/injection, schedule: Q04DX004 (sc), vehicle: water) is reported as 0 of 6 on day 15.
C1CN(P2(N3CC3)=NP(N3CC3)(N3CC3)=NP(N3CC3)(N3CC3)=N2)CCO1 (stereo unspecified) was tested, and the survivor count [10] was 0 of 3 on day 20.
O=C(O)/C=C/C(=O)Nc1ccc(Cl)c(Cl)c1 was tested, and the survivor count [8] was 3 of 6 on day 15.
In the case of C[CH2][Ge]1([CH2]C)[CH2]CC2(CCN(CCCN(C)C)C2)C[CH2]1, the survivor count [11] is reported as 0 of 3 on day 20, the survivor count (dose: 200.0 mg/kg/injection, schedule: Q01DX010 (sc), vehicle: saline) is reported as 0 of 3 on day 20 and the survivor count [2] is reported as 0 of 3 on day 20.
In the case of CNC(=O)OCc1c(COC(=O)NC)c(-c2ccccc2)n(C)c1-c1ccccc1, the T/C (dose: 100.0 mg/kg/injection, schedule: Q04DX004 (sc), vehicle: distilled water + Tween-80, evaluated on day 15) is reported as 149 % of control [5 of 6 alive on day 15].
C1OC1C1CO1 (stereo unspecified) was tested, and the survivor count [10] was 1 of 3 on day 20 and the survivor count [11] was 0 of 3 on day 20.
With C=C1C(=O)O[C@@H]2[C@H](O)[C@@H](C)[C@@H]3C=CC(=O)[C@@]3(C)[C@H](OC(=O)C=C(C)C)[C@H]12 the survivor count [4] was 1 of 6 on day 15.
In the case of O=C(O)C1CC1.[Ag], the T/C (dose: 300.0 mg/kg/injection, schedule: Q04DX004 (sc), vehicle: saline with Tween-80, evaluated on day 15) is reported as 134 % of control and the survivor count [7] is reported as 0 of 5 on day 15.
For COc1ccc2c(c1)CCn1c(C)c(COC(=O)NC(C)C)c(COC(=O)NC(C)C)c1-2, the survivor count (dose: 1200.0 mg/kg/injection, schedule: Q04DX004 (sc), vehicle: distilled water + Tween-80) was 1 of 6 on day 15 and the survivor count (dose: 2400.0 mg/kg/injection, schedule: Q04DX004 (sc), vehicle: distilled water + Tween-80) was 0 of 6 on day 15.
